Reference: PubChem BioAssay AID2517 (National Center for Advancing Translational Sciences (NCATS), 2010)
Several values for one entry are separate records, joined by “and”; a condition that tells them apart may be missing. Equal entries are not always repeated. The campaign covered roughly 350,000 compounds. About 1,200 (0.34%) were called active. The inconclusive results got no clear call from the source; some entries with a clear call stand among them for comparison. The call rests on the fitted dose curve; in most records, active means well fitted inhibition curve with a large enough effect; inconclusive means small, poorly fitted or top-dose-only effect; inactive means no such curve, though single readings can be large or run the other way. Potencies beside an inconclusive call are fits to weak or partial responses and may not hold up.
Further: nearly all actives have a fitted effect of over 55% in size.
Potency means the concentration at half of the fitted maximal effect.
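Wherever activity change, negative = inhibition is given: plate controls were vehicle for no effect and reference inhibitor for full effect.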

The chains behind the UniProt entries cited, without tags or fusion partners.
UniProt P27695, whole entry, looked up: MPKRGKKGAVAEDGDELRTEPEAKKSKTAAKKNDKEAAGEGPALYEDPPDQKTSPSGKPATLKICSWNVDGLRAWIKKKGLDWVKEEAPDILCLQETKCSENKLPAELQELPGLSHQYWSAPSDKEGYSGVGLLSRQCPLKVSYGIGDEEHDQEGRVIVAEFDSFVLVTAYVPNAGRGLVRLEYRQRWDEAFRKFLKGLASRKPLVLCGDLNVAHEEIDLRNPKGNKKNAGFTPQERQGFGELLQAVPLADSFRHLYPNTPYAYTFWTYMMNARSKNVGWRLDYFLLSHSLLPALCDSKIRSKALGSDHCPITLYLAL

Each compound was assayed against DNA repair nuclease/redox regulator APEX1 (Homo sapiens) (UniProt P27695) (assay: qHTS Assay for Inhibitors of the Human Apurinic/apyrimidinic Endonuclease 1 (APE1)). Details: recombinant APE1, TAMRA/BHQ-2 abasic DNA cleavage fluorescence; activity change, negative = inhibition: at 65.8 µM (top of the series).
Method in brief: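 Endonuclease cleavage of a quenched abasic-site DNA duplex (50 nM) by APE1 (0.75 nM) was tracked by TAMRA dequenching. Compounds were preincubated with enzyme 15 min at room temperature; data normalized to buffer-only and DMSO wells plus NSC13755 control.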
`Cc1ccc(NC(=O)CSc2nc3ccccc3c(=O)n2Cc2cccs2)cc1` was tested, and the Potency was inconclusive: 39.8 µM [inhibitor, single point].
`Cc1ccc(NNC(=O)c2c(C)noc2C)cc1Cl` was tested, and the Potency was inconclusive: 39.8 µM [inhibitor, single point].
With `Cn1c(SCC(=O)Nc2sc3c(c2C#N)CCC3)nnc1C1COc2ccccc2O1` (configuration not stated) the Potency was inconclusive: 39.8 µM [inhibitor, single point].
In the case of `CC(=O)OCC1OC(C#Cc2ccc(Cl)cc2)C=CC1OC(C)=O` (configuration not stated), the activity change, negative = inhibition is reported as inactive: 13.5% [at 12.4 µM] and inactive: 13.8% [at 12.4 µM].
In the case of `CC(C)c1ccc(OCc2ccc(C(=O)O)o2)cc1`, the Potency is reported as inconclusive: 28.2 µM [inhibitor, single point].
`Clc1ccccc1C1=Nn2c(nnc2-c2ccco2)SC1` was tested, and the Potency was inconclusive: 0.005 µM [inhibitor, full curve, poor fit].
`NS(=O)(=O)c1ccc(NC(=O)C2Cc3ccccc3CN2C(=O)c2ccco2)cc1` (configuration not stated) was tested, and the Potency was “inactive”.
With `COc1cccc(C2/C(=C(\O)c3ccc4c(c3)OCCO4)C(=O)C(=O)N2CCN(C)C)c1` (configuration not stated) the Potency was inconclusive: 0.141 µM [inhibitor, full curve].
In the case of `C=C1C[C@@]23CC4C5[C@@]6(C)C[C@H](O)C[C@@]57C2[C@H](O)[C@@H]1[C@H](O)[C@H]3[C@H]7N4C6`, the Potency is reported as inconclusive: 39.8 µM [inhibitor, single point].
`CCN(CCO)c1ccc(NC(=S)Nc2cccc(S(=O)(=O)N(C)C)c2)cc1` was tested, and the Potency was inconclusive: 20 µM [inhibitor, single point].
With `O=C1CC(N(CCc2ccccc2)C(=S)Nc2ccccc2)C(=O)N1c1ccccc1` (configuration not stated) the Potency was inconclusive: 31.6 µM [inhibitor, single point].
`CC(=O)Nc1cccc(OCc2ccc(S(=O)(=O)Cc3ccccc3)cc2)c1` was tested, and the Potency was inconclusive: 1.58 µM [inhibitor, full curve, poor fit].
In the case of `CNC(=O)NC(=O)C(C)Oc1ccccc1F` (configuration not stated), the Potency is reported as inconclusive: 0.112 µM [inhibitor, full curve, poor fit].
With `O=C(COC(=O)c1ccc(NS(=O)(=O)c2cccs2)cc1)NCC1CCCO1` (configuration not stated) the Potency was inconclusive: 10 µM [inhibitor, single point].
`CCOC(=O)c1[nH]cnc1C(=O)Nc1ccccn1` was tested, and the Potency was inconclusive: 6.31 µM [inhibitor, single point].
For `CNc1nc(-c2ccc(N(C)C)cc2)nc2ccccc12`, the Potency was inconclusive: 35.5 µM [inhibitor, partial curve, poor fit].
`O=C(NCCNCCO)C1(C(F)(F)F)CC(CCc2ccccc2)CCCO1` (configuration not stated) was tested, and the Potency was inconclusive: 8.91 µM [inhibitor, single point].
